Assay results: PubChem BioAssay AID1347076 (National Center for Advancing Translational Sciences (NCATS), 2019)
Screen size: about 400,000 compounds; about 13,000 (3.2%) were called active. The shares of active, inactive and inconclusive entries below differ from those in the screen. The call rests on the fitted dose curve; in most records, active means well fitted cell-killing curve with a large enough effect; inconclusive means small, poorly fitted or top-dose-only effect, or effect the other way; inactive means flat fitted curve, though single readings scatter. Potencies of inconclusive entries are doubtful fits and often do not repeat.

Assay: qHTS assay for MDR1-selective chemotherapeutics: Primary screen using the drug-selected MDR subline cells KB-V1; further: nearly all actives have a fitted effect of over 60% in size
Settings: KB-V1 MDR cells viability, CellTiter-Glo, 72 h; activity change, negative = cytotoxicity: at 46.1 µM (top of the series)
Method in brief: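 Luminescent ATP read-out (CellTiter-Glo, 10 min) measures survival of drug-selected KB-V1 MDR cells after 72 h, 37 degrees C compound exposure. Medium: phenol-red-free DMEM, 10% FBS. Values from fitted concentration-response curves.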
On the % scale 0 is the no-effect control and ±100 the full control effect; potency means the concentration at half of the fitted maximal effect.

| SMILES | Potency | activity change, negative = cytotoxicity |
| --- | --- | --- |
| CCOC(=O)c1ccc(N2C(=O)c3n[nH]c(C)c3C2c2ccc(CC)cc2)cc1 (configuration not stated) | inactive |  |
| COc1ccc(C)cc1NC(=O)CNC(C)C(=O)Nc1ccc(C(C)=O)cc1 (configuration not stated) | inactive |  |
| Oc1ccc(C2CNCc3sccc32)cc1O (configuration not stated) | inactive |  |
| CCc1c(-c2ccccc2)nc2sc3c(c2c1N)CCCC3 | inconclusive: 29.1 µM [cytotoxic, single point] |  |
| CC(C)Cc1nc(S(=O)(=O)c2ccc(Cl)cc2)c(N2CCOCC2)o1 | inconclusive: 16.4 µM [rising, partial curve, poor fit] |  |
| Cc1cc(C(=O)OCC(=O)NCCC(C)C)c2ccccc2n1 | inactive |  |
| CN(C)CCCNc1c2ccccc2nc2ccccc12 | active: 11.6 µM |  |
| C=CCc1cccc(/C=N/NC(=O)CNc2ccccc2OC)c1O | inconclusive: 20.6 µM [cytotoxic, single point] |  |
| CC(C)CNS(=O)(=O)c1cc(C(=O)N2CC(C)OC(C)C2)c(Cl)cc1Cl (configuration not stated) | inconclusive: 18.4 µM [cytotoxic, single point] |  |
| COc1ccc(N(CC(=O)Nc2cc(Cl)ccc2OC)S(=O)(=O)c2c(C)noc2C)cc1 | active: 3.26 µM |  |
| C=CCNC(=S)N/N=C/c1ccc(C)c([N+](=O)[O-])c1 | inactive |  |
| CCc1cnc(Nc2nc(C(N)Cc3ccc(F)cc3)cs2)nc1 (configuration not stated) | inconclusive: 23.1 µM [cytotoxic, single point] |  |
| Cc1c(N=Cc2cc(Br)cc(Br)c2O)cccc1C(=O)O | inconclusive: 29.1 µM [cytotoxic, single point] |  |
| COc1ccc(-c2nnc3sc(-c4ccccc4OC)nn23)cc1 | inactive |  |
| Cc1cccc(NC(=O)CNC(=O)CSc2nc(N)cc(N)n2)c1C | inactive |  |
| CC(C)C(c1nnnn1Cc1ccc(F)cc1)N1CCN(c2ccc(O)cc2)CC1 (configuration not stated) | inconclusive: 32.6 µM [cytotoxic, single point] |  |
| Cc1nn(CC(C)C)c(Cl)c1C(=O)N(C)CC(=O)Nc1ccc(Cl)cc1 | inconclusive: 11.6 µM [cytotoxic, partial curve, poor fit] |  |
| COCCCn1c(SCC(=O)NC2CCCCC2)nc2ccccc2c1=O | inconclusive: 8.2 µM [cytotoxic, partial curve, poor fit] |  |
| COc1cc2cnc(-c3ccsc3)cc2cc1OC | inconclusive: 23.1 µM [cytotoxic, single point] |  |
| CCOC(=O)C1CCCN(C(=O)/C=C/c2ccccc2)CC1 (configuration not stated) | inconclusive: 20.6 µM [cytotoxic, partial curve] |  |
| O=C(Cn1nc(-c2ccc3c(c2)OCCO3)ccc1=O)Nc1ccc(-n2cnnn2)cc1 | inconclusive: 0.013 µM [rising, full curve] |  |
| CCCN1CCN(S(=O)(=O)c2c(C)[nH]c(C)c2C(=O)N2CCCCC2)CC1 | inactive |  |
| CCOCCCNC(=O)CN1C(=O)CCn2nc(-c3cccn3C)cc21 | inactive |  |
| CN(CC(=O)Nc1ccc(Cl)c(Cl)c1)C(=O)/C=C/c1ccc(F)cc1 | inconclusive: 18.4 µM [cytotoxic, single point] |  |

| SMILES | Potency | activity change, negative = cytotoxicity |
| --- | --- | --- |
| CNCCC=C1c2ccccc2C=Cc2ccccc21 | inconclusive: 23.1 µM [cytotoxic, partial curve, poor fit] |  |
| C=CCC[C@@H](Cc1ccc(F)cc1)C(=O)OC[C@@H](NC(=O)[C@@H](CC=C)CC(=O)N(CCO)Cc1ccccc1)c1ccccc1 | inconclusive: 14.6 µM [cytotoxic, single point] |  |
| CCN(Cc1cnn(C)c1)C(=O)c1cc(COc2ccc3c(c2)CCCC3)on1 | inactive |  |
| COc1ccc(CNC(=O)CCc2c(C)nc3c4cccnc4nn3c2C)cc1 | inactive |  |
| COc1ccc(CC(=O)Nc2nnc3n2CCS3)cc1OC |  | inconclusive: 75.7% |
| CCc1ccccc1NC(=O)Cn1nnc(C(=O)NCc2cccc(OC)c2)c1N | inconclusive: 29.1 µM [cytotoxic, single point] |  |
| Cc1ccc(NC(=O)Cn2c(=O)n(CC(=O)NCCc3ccccc3)c(=O)c3ccccc32)cc1 | inconclusive: 29.1 µM [rising, partial curve, poor fit] |  |
| O=C(O)CCC(=O)NNc1ccccc1[N+](=O)[O-] | inconclusive: 29.1 µM [rising, single point] |  |
| COc1cccc(C(=O)NNC(=S)NC2CCCCC2)c1 | active: 23.1 µM |  |
| Cc1nc(SCC(=O)NC(=O)NCc2ccco2)nc(C)c1C | inconclusive: 2.06 µM [cytotoxic, partial curve, poor fit] |  |
| O=C(NCC1COc2ccccc2O1)c1ccccc1 (configuration not stated) | inconclusive: 18.4 µM [cytotoxic, single point] |  |
| Cc1ccc(Cn2ncc3c(N4CCN(c5ccccc5C)CC4)ncnc32)cc1 | inconclusive: 8.2 µM [cytotoxic, partial curve] |  |
| CNC(=O)C1CCC(Cn2c(=O)c3sccc3n(CC(=O)Nc3ccccc3)c2=O)CC1 (configuration not stated) | inconclusive: 25.9 µM [rising, single point] |  |
| COc1ccc(NC(=O)CC2C(=O)N(Cc3ccco3)C(=S)N2C(C)C)cc1 (configuration not stated) | inconclusive: 29.1 µM [cytotoxic, partial curve, poor fit] |  |
| O=C(Nc1ncc(Cc2ccccc2Cl)s1)c1ccc2c(c1)CC(c1ccccc1)OC2=O (configuration not stated) | inactive |  |
| O=C(Cc1cccc(C(F)(F)F)c1)NCC(c1ccco1)N1CCCCC1 (configuration not stated) | inconclusive: 25.9 µM [cytotoxic, single point] |  |
| COc1cc(OC)cc(C(=O)N[C@H](C(=O)OCC(=O)Nc2ccc(C(C)C)cc2)C(C)C)c1 | inconclusive: 20.6 µM [cytotoxic, single point] |  |
| c1ccc2nc(SCc3cn4ccccc4n3)cnc2c1 | inconclusive: 29.1 µM [rising, single point] |  |
| CSc1ncccc1C(=O)OC(C)C(=O)Nc1cccc(S(=O)(=O)N2CCOCC2)c1 (configuration not stated) | inactive |  |
| Cc1ccc(CNc2nc(NCc3ccccc3)nc3ccsc23)c(C)c1 | inconclusive: 5.17 µM [cytotoxic, partial curve, poor fit] |  |
| Cc1c(C(=O)N2CCN(c3ncccn3)CC2)oc2c(Cl)cccc12 | inconclusive: 9.2 µM [cytotoxic, partial curve] |  |
| COc1ccc(C)cc1S(=O)(=O)n1cnc(C)c1 | inactive |  |
| CCOC(=O)c1oc2cc(O)c(CC)cc2c(=O)c1-c1cscn1 | inactive |  |
| CSc1cccc(N2CC(C(=O)Nc3ccccc3N3CCCC3)CC2=O)c1 (configuration not stated) | inactive |  |

| SMILES | Potency | activity change, negative = cytotoxicity |
| --- | --- | --- |
| CCOC(=O)[C@]12CCCC=C1N(Cc1ccccc1)C(=O)[C@H](CC(=O)NCc1cccc3ccccc13)C2 | inconclusive: 18.4 µM [cytotoxic, partial curve, poor fit] |  |
| COc1ccc2nc(NCCCNC(=O)c3cc(OC)c(OC)c(OC)c3)c(C#N)cc2c1 | inconclusive: 5.8 µM [cytotoxic, full curve] |  |
| Cc1cc2c(cc(C(=O)OCC(=O)NC3CCCCC3)n2C)o1 | inconclusive: 2.31 µM [rising, full curve, poor fit] |  |
| COc1cc(OC)cc(C(=O)NC(=S)Nc2cccnc2)c1 | inactive |  |
| COc1ccc(OC)c(-n2nnnc2SCC(=O)Nc2ccc3c(c2)OCCO3)c1 | inconclusive: 0.0073 µM [cytotoxic, full curve] |  |
| Cc1cc(C)c(NC(=O)/C=C\C(=O)O)c([N+](=O)[O-])c1 | inactive |  |
| O=C(CN1C(=O)COc2ccc(Cl)cc21)Nc1cccc(C(=O)O)c1 | inconclusive: 0.0411 µM [rising, full curve, poor fit] |  |
| CCOC(=O)c1sc(NC(=O)c2cc(-c3ccc(C)cc3)nc3ccccc23)c(C#N)c1C | active: 3.26 µM |  |
| CCOC(=O)C1=C(N)OC2=C(C(=O)CC(C)(C)C2)C1c1ccc(CC)s1 (configuration not stated) | inconclusive: 10.3 µM [rising, partial curve, poor fit] |  |
| CCCS(=O)(=O)NC(=O)C1(C)CCN(C(=O)c2cc(C(C)(C)C)nn2C)C1 (configuration not stated) | inactive |  |
| Cc1ccc(-c2c(C(=O)O)c(C(=O)O)c3n2CCC3)cc1 | inconclusive: 0.164 µM [rising, full curve] |  |
| CCOc1ccc(C(C(=O)NC(C)(C)C)N(CCOC)C(=O)CCC(=O)Nc2nccs2)cc1 (configuration not stated) | inactive |  |
| COc1cc(C(=C(CC(=O)O)C(=O)O)c2ccc3c(c2)OCO3)cc(OC)c1OC | inactive |  |
| Cc1ccc(C(=O)N/C(=C\C=C\c2ccccc2)C(=O)NCc2ccco2)cc1 | inconclusive: 29.1 µM [cytotoxic, single point] |  |
| Cc1cnc(C=NNC(N)=S)c2cccc(N)c12 | active: 7.31 µM |  |
| CCOc1ccccc1CNC(=O)CN1C(=O)c2cccnc2Oc2ccc(C)cc21 | inactive |  |
| COc1ccc(Cn2cccc(NC(=O)Nc3cccc(C#N)c3)c2=O)cc1 | active: 4.11 µM |  |
| COc1ccc(N(C)S(=O)(=O)c2cccc(C(=O)NC3CCC(C)CC3)c2)cc1 (configuration not stated) | inconclusive: 5.8 µM [cytotoxic, partial curve] |  |
| CCN1C(=O)C2(c3ccccc31)c1c(oc3ccccc3c1=O)C(=O)N2CCOC (configuration not stated) | inactive |  |
| CCOc1ccc(C(=O)N2CCC3(CC2)NCCc2[nH]cnc23)cc1OCC | inconclusive: 29.1 µM [rising, single point] |  |
| COC(=O)c1cccc(NC(=O)c2nn(C)c(=O)c3ccccc23)c1 | inactive |  |
| CC(=O)c1sc2nc(SCC(=O)NCCc3ccccc3)[nH]c(=O)c2c1C | inconclusive: 0.0058 µM [cytotoxic, full curve, poor fit] |  |
| COc1cc2ccc(C(C)=O)c(O)c2cc1OC | inconclusive: 29.1 µM [cytotoxic, single point] |  |
| Cc1cc(C)c(S(=O)(=O)Nc2ccccc2C(=O)N2CCOCC2)c(C)c1 | inactive |  |

Sorted by heavy-atom count (rising): 13 of the compounds above.

| SMILES | Potency | activity change, negative = cytotoxicity |
| --- | --- | --- |
| Cc1cnc(C=NNC(N)=S)c2cccc(N)c12 | active: 7.31 µM |  |
| Cc1cc(C)c(NC(=O)/C=C\C(=O)O)c([N+](=O)[O-])c1 | inactive |  |
| Cc1ccc(-c2c(C(=O)O)c(C(=O)O)c3n2CCC3)cc1 | inconclusive: 0.164 µM [rising, full curve] |  |
| O=C(CN1C(=O)COc2ccc(Cl)cc21)Nc1cccc(C(=O)O)c1 | inconclusive: 0.0411 µM [rising, full curve, poor fit] |  |
| CCOC(=O)C1=C(N)OC2=C(C(=O)CC(C)(C)C2)C1c1ccc(CC)s1 (configuration not stated) | inconclusive: 10.3 µM [rising, partial curve, poor fit] |  |
| Cc1cc(C)c(S(=O)(=O)Nc2ccccc2C(=O)N2CCOCC2)c(C)c1 | inactive |  |
| CCOc1ccc(C(=O)N2CCC3(CC2)NCCc2[nH]cnc23)cc1OCC | inconclusive: 29.1 µM [rising, single point] |  |
| COc1ccc(N(C)S(=O)(=O)c2cccc(C(=O)NC3CCC(C)CC3)c2)cc1 (configuration not stated) | inconclusive: 5.8 µM [cytotoxic, partial curve] |  |
| COc1cc(C(=C(CC(=O)O)C(=O)O)c2ccc3c(c2)OCO3)cc(OC)c1OC | inactive |  |
| CCOc1ccccc1CNC(=O)CN1C(=O)c2cccnc2Oc2ccc(C)cc21 | inactive |  |
| COc1ccc2nc(NCCCNC(=O)c3cc(OC)c(OC)c(OC)c3)c(C#N)cc2c1 | inconclusive: 5.8 µM [cytotoxic, full curve] |  |
| CCOc1ccc(C(C(=O)NC(C)(C)C)N(CCOC)C(=O)CCC(=O)Nc2nccs2)cc1 (configuration not stated) | inactive |  |
| CCOC(=O)[C@]12CCCC=C1N(Cc1ccccc1)C(=O)[C@H](CC(=O)NCc1cccc3ccccc13)C2 | inconclusive: 18.4 µM [cytotoxic, partial curve, poor fit] |  |
